# Source: article PMC12429265
# Results are given in words; binding and its absence hold for the method and conditions named. In cells and extracts the contact can be indirect. Some results given as binding are weak or reduced against the parent protein; the word gives no strength. Tags and fused reporters may be left off the sequences shown.
# T1: HA-tagged N-TPR (1-1115 aa) (Drosophila) (UniProt A1Z8P9)
# T1 sequence: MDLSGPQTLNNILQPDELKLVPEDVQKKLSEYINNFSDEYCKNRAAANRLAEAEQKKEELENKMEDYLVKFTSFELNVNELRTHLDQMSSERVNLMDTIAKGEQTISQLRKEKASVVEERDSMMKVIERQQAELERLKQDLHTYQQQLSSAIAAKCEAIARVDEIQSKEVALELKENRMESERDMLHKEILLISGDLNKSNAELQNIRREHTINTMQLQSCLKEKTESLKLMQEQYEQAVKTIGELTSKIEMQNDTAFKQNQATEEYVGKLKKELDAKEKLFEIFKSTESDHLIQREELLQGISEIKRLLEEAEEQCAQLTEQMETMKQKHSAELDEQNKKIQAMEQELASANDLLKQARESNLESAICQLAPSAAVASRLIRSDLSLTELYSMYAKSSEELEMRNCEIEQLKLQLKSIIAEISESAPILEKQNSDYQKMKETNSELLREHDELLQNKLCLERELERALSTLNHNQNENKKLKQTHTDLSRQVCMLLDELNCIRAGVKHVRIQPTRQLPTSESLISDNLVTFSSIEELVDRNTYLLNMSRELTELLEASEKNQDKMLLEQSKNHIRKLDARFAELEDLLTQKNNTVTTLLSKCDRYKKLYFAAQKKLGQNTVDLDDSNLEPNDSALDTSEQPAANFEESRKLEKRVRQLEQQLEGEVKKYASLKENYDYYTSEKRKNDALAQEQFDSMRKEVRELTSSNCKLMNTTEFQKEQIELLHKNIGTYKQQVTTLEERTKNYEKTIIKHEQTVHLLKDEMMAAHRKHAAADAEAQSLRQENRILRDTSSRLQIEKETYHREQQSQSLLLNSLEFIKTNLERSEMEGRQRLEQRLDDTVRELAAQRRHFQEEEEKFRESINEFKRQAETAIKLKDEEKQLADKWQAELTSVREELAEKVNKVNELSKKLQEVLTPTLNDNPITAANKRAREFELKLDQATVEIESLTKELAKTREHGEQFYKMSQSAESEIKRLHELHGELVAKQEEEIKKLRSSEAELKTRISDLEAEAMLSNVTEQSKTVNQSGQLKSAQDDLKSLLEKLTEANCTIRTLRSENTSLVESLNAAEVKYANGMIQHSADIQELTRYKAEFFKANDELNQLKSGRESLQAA
# Biological target: T1, HA-tagged N-TPR (1-1115 aa) (Drosophila)
# Assay: co-IP; called pull-down assay; FLAG-tagged TREX-2 subunits co-expressed in pairs with HA-tagged Nup153 or TPR fragments in S2 cells for 4 days; lysis in 10 mM HEPES pH 7.9, 5 mM MgCl2, 0.5% NP-40, 0.45 M NaCl, 1 mM DTT; extract treated with DNase I and RNase; anti-FLAG M2 agarose or anti-HA agarose; Western blot
row,binding,Binder
1,binds weakly,"FLAG-tagged Xmas-2 (protein, UniProt Q9U3V9-1 1-1370) MAEPRPGGYNYKTLLCRNIPELFLDKYVARSHFGRFGTLVNFVLRPRRMTCTVSYASEDEAARALLDGASFQGHLFDISYADNETAPAQKTEEWVDPDIQAELSALQSGWRNEYGSGKPIKKPQNGSSGSGGSSMLPAIPVGPATAPVSRDRTPAQLRDLENMMRRPAHTSEEKFSVLDARDKLLRLNRTQHKLSGATQGHCADMCPEKERVLREFQRQVAYYELQPGSDELICHERALKQYSRSSADQETPLPHELRNETALHMTMSYLMHEIMDISERQDPQSHMGDWFHFVWDRTRSIRKEITQQELCSLGAVKLVEQCARFHIHCAARLVDADPSVFDSKINAENLTKCLQTLKYMYHDLRIKGVPCPKEAEFRGYIVLLNLADANFLWDIGQLPAELQSCPEVRQAIQFYLALQDTNFVRFFQLLADKDTSYLSACILVNYFTRLRVLGLHRLIQAYRSPRKDEVSSLPLSYIAELLSFASEQEAADFVQHYGLQINEAGRVVLSRMHTVETEYKLPRQYELVEVKRVKSVGEVVSGEPLPPRDLYLNHRPHNSFDDYGMLKSIAWTAKDQLAGMQQEEMQPQMPSQPPAVSKHSDTLFKVPMQPDGTAAGFGVFAAAAVPPASSIDGFSFVLPKSRAQEFQEQAPATQQRRAQEEAKHQALQVAIAAAKKREAELMAIHEAKVAEAERVRQQKLRERQEQQRRQQQELEEQRQREQEKLQLEKERQLKLEQLFFVQQQEREAHKQTRTLELYQEIFQDTLAEICQSEFMSHSRACRSYESMLDSITRDLVERQMEQSIYELGVMRVCIRRWRKYRRTQQEKDTLFNQLPLSFGAENPEGVVNKRSMEDSLRLSRRYRLGEPCDYGKLLAGLEEHSWLKLDLWHVLDKCLPVAQPGARRFYKLLISLSGGQEGLQLNCDLDRGLLQQPQSPDARFVDGGYIRGFSQGIGLSVMKIRDDDHDWKATDLAEANGIICLIGLDDIRLLPDRLKPLLQASRCHDVAVIVQHPANTAFVQPDIPLQELCLRSFNIFRLRKSGNNRQRLMIALESAVKFLAKATERKRVGHLHQVETREYLLVNLGSELFRRLKYAAEHDTAIRSDTQLNPQRCVDLFNEAVHRLQLVAGEDLSDWPQFPEELRVFVQPLPIESSLNTNRLEHFEPGWHLPERRQRIVQLLERCKLPKMPVLPRSSSLAEAQCQWVLDYAQISQQEDCVEQIALQAIKILQYDTDDYLNFVEYLAGERMQYILRQERNPPQGIVYNTKTLKRRFLSAWYYEFREPQIYEPVPAEENAQMLEKQPSSQAEVQQLDFDEITSKAEAVLKRFHQRQDERHTLRELNRSHKSRKRRDASDHKHASKHKRKRSKSK"
2,binds weakly,"FLAG-tagged PCID2 (protein, UniProt Q9VTL1 1-395) MFGTVNNYLSGVLHAAQDLDGESLATYLSLRDVHVQNHNLYIAQPEKLVDRFLKPPLDEVVSAHLKVLYHLAQEPPGYMEAYTQQSAACGAVVRLLQQLKDENWCLPLMYRVCLDLRYLAQACEKHCQGFTPGHVLEKAADCIMACFRVCAADGRASEEDTKRLGMMNLVNQLFKIYFRINKLHLCKPLIRAIDNCIFKDSFPLPEQITYKYFVGRRAMFDSNYQAAVQYLSYAFSNCPDRFASNKRLILIYLVPVKMLLGYLPSKSLLQRYDLLLFLDLAMAMKAGNVNRFDEIVRDQELVLIRSGIYLLVEKLKFLVYRNLFKKVFVIRKSHQLDMGDFLSALHFVGLTDVSLDETHCIVANLIYDGKIKGYISHAHNKLVVSKQNPFPSVSL"
